A short description of this data set: Blind bench evaluation of sweeteners in six beverage matrices, RebM90 as control. Format: in vivo, human. The procedure: A blind evaluation of the above-named sweeteners was conducted in six (6) beverage (liquid) matrices, including both sparkling and still matrixes. Of the six beverage matrices, four (4) were calorie reduction matrixes and two (2) were diet matrixes. RebM90 served as control. 7-10 internal team members blindly evaluated the samples.

Each structure is given as a SMILES string.

For `C=C1C[C@@]23CC[C@H]4[C@@](C)(CCC[C@@]4(C)C(=O)O[C@@H]4O[C@H](CO)[C@@H](O)[C@H](O[C@@H]5O[C@H](CO)[C@@H](O)[C@H](O)[C@H]5O)[C@H]4O[C@@H]4O[C@@H](C)[C@H](O)[C@@H](O)[C@H]4O)[C@@H]2CC[C@]1(O[C@@H]1O[C@H](CO)[C@@H](O)[C@H](O[C@@H]2O[C@H](CO)[C@@H](O)[C@H](O)[C@H]2O)[C@H]1O[C@@H]1O[C@H](CO)[C@@H](O)[C@H](O)[C@H]1O)C3` [Rebaudioside N], the Comments entry (Orange Juice (5.3 Brix from juice)) was “rebaudioside N performs closest”.

`C[C@H](CC[C@@H](O[C@@H]1O[C@H](CO[C@@H]2O[C@H](CO)[C@@H](O)[C@H](O)[C@H]2O)[C@@H](O)[C@H](O)[C@H]1O[C@@H]1O[C@H](CO)[C@@H](O)[C@H](O)[C@H]1O)C(C)(C)O)[C@H]1CC[C@@]2(C)[C@@H]3CC=C4[C@@H](CC[C@H](O[C@@H]5O[C@H](CO[C@@H]6O[C@H](CO)[C@@H](O)[C@H](O)[C@H]6O)[C@@H](O)[C@H](O)[C@H]5O)C4(C)C)[C@]3(C)[C@H](O)C[C@]12C` [Mogroside V]: the Comments entry (Cola type of beverage, one highly sensitive tester) is on record as “mogroside V had some monk”. With `C[C@H](CC[C@@H](O[C@@H]1O[C@H](CO)[C@@H](O)[C@H](O)[C@H]1O[C@@H]1O[C@H](CO)[C@@H](O)[C@H](O)[C@H]1O)C(C)(C)O)[C@H]1CC[C@@]2(C)[C@H]3CC=C4[C@@H](CC[C@H](O[C@@H]5O[C@H](CO[C@@H]6O[C@H](CO)[C@@H](O)[C@H](O)[C@H]6O)[C@@H](O)[C@H](O)[C@H]5O)C4(C)C)[C@]3(C)[C@H](O)C[C@]12C` [Mogroside IV], under “Lemon Lime Sparkling (70% sugar reduction)”, the Comments entry was “IV slightly bitter”.
